The source of these data is PMC8292527.

Amino acid sequences for entries named in this document (tags omitted). A change or cut given only in a name is not applied to a line headed by its entry. Chains listed by the source or under a name are the forms on record and can include a tag or linker. Residues count along the entry.
UniProt P08134: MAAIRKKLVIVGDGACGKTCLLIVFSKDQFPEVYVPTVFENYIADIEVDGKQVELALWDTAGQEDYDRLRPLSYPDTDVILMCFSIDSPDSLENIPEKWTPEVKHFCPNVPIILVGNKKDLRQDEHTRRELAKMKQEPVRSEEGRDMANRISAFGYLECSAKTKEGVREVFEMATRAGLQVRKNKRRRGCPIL
RhoC GAP binding site (aa34-39)-deleted truncate (ΔGAP) (P08134, form named): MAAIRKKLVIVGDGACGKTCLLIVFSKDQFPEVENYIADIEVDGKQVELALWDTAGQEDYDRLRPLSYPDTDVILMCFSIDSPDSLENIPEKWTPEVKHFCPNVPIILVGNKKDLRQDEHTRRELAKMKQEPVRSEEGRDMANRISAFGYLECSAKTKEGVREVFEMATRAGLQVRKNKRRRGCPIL
UniProt Q9H6X2, residues 33-564: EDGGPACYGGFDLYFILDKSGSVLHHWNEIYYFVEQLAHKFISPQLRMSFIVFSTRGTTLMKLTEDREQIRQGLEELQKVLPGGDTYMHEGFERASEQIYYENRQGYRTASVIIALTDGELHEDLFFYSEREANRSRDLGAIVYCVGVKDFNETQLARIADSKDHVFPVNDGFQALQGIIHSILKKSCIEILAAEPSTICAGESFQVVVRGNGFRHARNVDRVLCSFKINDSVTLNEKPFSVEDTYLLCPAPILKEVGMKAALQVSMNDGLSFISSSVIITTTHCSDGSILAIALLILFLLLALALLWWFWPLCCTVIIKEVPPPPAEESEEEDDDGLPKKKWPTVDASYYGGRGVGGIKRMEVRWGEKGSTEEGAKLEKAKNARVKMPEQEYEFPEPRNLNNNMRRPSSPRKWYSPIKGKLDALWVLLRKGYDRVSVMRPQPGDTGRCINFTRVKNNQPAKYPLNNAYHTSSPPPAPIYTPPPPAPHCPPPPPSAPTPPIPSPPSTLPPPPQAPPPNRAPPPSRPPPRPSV
UniProt P63092: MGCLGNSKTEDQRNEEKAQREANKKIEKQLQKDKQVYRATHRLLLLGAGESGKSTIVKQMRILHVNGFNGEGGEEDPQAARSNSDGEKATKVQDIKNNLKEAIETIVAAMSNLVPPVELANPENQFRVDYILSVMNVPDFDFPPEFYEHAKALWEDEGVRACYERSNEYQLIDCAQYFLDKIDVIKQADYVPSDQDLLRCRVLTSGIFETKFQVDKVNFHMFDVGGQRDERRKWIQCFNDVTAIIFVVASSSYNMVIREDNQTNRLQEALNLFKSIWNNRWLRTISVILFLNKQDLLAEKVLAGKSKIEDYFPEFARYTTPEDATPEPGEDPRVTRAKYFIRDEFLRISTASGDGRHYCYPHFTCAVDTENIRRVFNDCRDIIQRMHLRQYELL

Assay [1] has as its target RhoC, bacterial expression (pGEX-6p-1) (UniProt P08134). As to the kind of experiment: co-IP; in vitro co-IP of proteins expressed from pGEX-6p-1 in E. coli BL21; the paper calls the interactions direct; conditions not described.
For assay [2], the target named is FLAG-tagged full length TEM8 (tumor endothelial marker 8) (human) (UniProt Q9H6X2). As to the kind of experiment: co-IP; MDA-MB-231 cells; lysates in EBC buffer (50 mM Tris, 120 mM NaCl, 0.5% NP40, pH7.5), FLAG-beads or anti-HA antibody on protein A/G agarose overnight at 4 °C, NETN wash, western blotting. Background: In western blotting, separated proteins are transferred to a membrane and probed.

The target in assay [3] is Full length RhoC protein (FL), in 293T cells (UniProt P08134). Kind of assay: co-IP; 293T cells transfected with GNAS (FL or ΔGTP) and/or RhoC (FL or ΔGAP); western blotting.
In assay [4] the target is RhoC GAP binding site (aa34-39)-deleted truncate (ΔGAP) (UniProt P08134). Described as above.

Results are given in words; binding and its absence hold for the method and conditions named. In cells and extracts the contact can be indirect. Some binding calls cover weakened binding; strength is not graded here.

Consider “HA-tagged GNAS, bacterial expression (pGEX-6p-1) (from UniProt P63092 1-394)”, for which the binding result in assay [1] is reported as “binds”. “Ras homolog family member C (RhoC), in MDA-MB-231 cells (from UniProt P08134 1-193)”: the binding result in assay [2] is on record as “binds”. As to “Full length GNAS protein (FL), transfected into 293T cells (from UniProt P63092 1-394)”, the binding entry in assay [3] was “binds”; in assay [4], “no binding”.
